Patent publication US6586617B1, “Sulfonamide derivatives” (Sumitomo Chemical Takeda Agro Company, Limited, priority 1999, dated 2003)
Some results were stated once for a whole list of compounds, not compound by compound. For at least one compound, name, drawing or mass did not settle the structure.

Tested on: apple Alternaria leaf blotch (Alternaria mali)
Assay: Test Example 3: protective effects against apple Alternaria leaf blotch
Type: in vivo
Settings: spray solution as in Test Example 1 (200 ppm), 10 ml/pot, apple seedlings (Starking-Delicious)

SMILES	protection score
Cc1ccc(S(=O)(=O)N(C)c2ccc(Cl)cc2N)cc1 [Compound No. 61, 2′-Amino-4′-chloro-N-methyl-p-toluenesulfonanilide]	3 (the lesioned area ratio is less than 10%)
CCN(c1ccc([N+](=O)[O-])cc1[N+](=O)[O-])S(=O)(=O)c1ccc(C)cc1 [Compound No. 435, 2′,4′-Dinitro-N-ethyl-p-toluenesulfonanilide]	3 (the lesioned area ratio is less than 10%)
CCN(c1ccc(C#N)cc1[N+](=O)[O-])S(=O)(=O)c1ccc(C)cc1 [compound 407]	3 (the lesioned area ratio is less than 10%)
C=CCN(c1ccc(F)cc1[N+](=O)[O-])S(=O)(=O)c1ccc(C)cc1 [compound 266]	3 (the lesioned area ratio is less than 10%)
Cc1ccc(S(=O)(=O)N(c2ccc(Cl)cc2C(N)=S)C(C)C)cc1 [Compound No. 85, 4′-Chloro-N-isopropyl-2′-thiocarbamoyl-p-toluenesulfonanilide]	3 (the lesioned area ratio is less than 10%)
Cc1ccc(S(=O)(=O)N(C)c2ccc(Cl)cc2C(F)(F)F)cc1 [compound 116]	3 (the lesioned area ratio is less than 10%)
Cc1ccc(S(=O)(=O)N(c2ccc([N+](=O)[O-])cc2C#N)C(C)C)cc1 [Compound No. 421]	3 (the lesioned area ratio is less than 10%)
Cc1ccc(S(=O)(=O)N(C)c2ncc(Cl)cc2[N+](=O)[O-])cc1 [Compound No. 494, N-(5-Chloro-3-nitropyridin-2-yl)-N-methyl-p-toluenesulfonamide]	3 (the lesioned area ratio is less than 10%)
COCOc1ccc(N(C)S(=O)(=O)c2ccc(C)cc2)c([N+](=O)[O-])c1 [Compound No. 219, 4′-Methoxymethoxy-N-methyl-2′-nitro-p-toluenesulfonanilide]	3 (the lesioned area ratio is less than 10%)
CCN(c1ccc(Cl)cc1C(N)=O)S(=O)(=O)c1ccc(C)cc1 [Compound No. 80, 4′-Chloro-2′-carbamoyl-N-ethyl-p-toluenesulfonanilide]	3 (the lesioned area ratio is less than 10%)
Cc1ccc(S(=O)(=O)N(c2ccc(Cl)cc2C#N)C(C)C)cc1 [Compound No. 97, 4′-Chloro-2′-cyano-N-isopropyl-p-toluenesulfonanilide]	3 (the lesioned area ratio is less than 10%)
CCN(c1ccc(Cl)cc1C(N)=S)S(=O)(=O)c1ccc(C)cc1 [Compound No. 84, 4′-Chloro-N-ethyl-2′-thiocarbamoyl-p-toluenesulfonanilide]	3 (the lesioned area ratio is less than 10%)
Cc1ccc(S(=O)(=O)N(C)c2ccc(C#N)cc2C#N)cc1 [compound 112]	3 (the lesioned area ratio is less than 10%)
Cc1ccc(S(=O)(=O)N(c2ccccc2C#N)S(=O)(=O)c2ccc(C)cc2)cc1 [Compound No. 26]	3 (the lesioned area ratio is less than 10%)
CCN(c1ccc(Cl)cc1[N+](=O)[O-])S(=O)(=O)c1ccc(C#N)cc1 [Compound No. 356, 4′-Chloro-4-cyano-N-ethyl-2′-nitrobenzenesulfonanilide]	3 (the lesioned area ratio is less than 10%)
COc1ccc(N(S(=O)(=O)c2ccc(C)cc2)S(=O)(=O)c2ccc(C)cc2)c([N+](=O)[O-])c1 [Compound No. 214, N,N-bis(p-Toluenesulfonyl)-4-methoxy-2-nitroaniline]	3 (the lesioned area ratio is less than 10%)
Cc1ccc(S(=O)(=O)N(C)c2ccc(Cl)cc2Cl)cc1 [Compound No. 51, 2′,4′-Dichloro-N-methyl-p-toluenesulfonanilide]	3 (the lesioned area ratio is less than 10%)
C#CCN(c1ccc(Cl)cc1[N+](=O)[O-])S(=O)(=O)c1ccc(C)cc1 [compound 300]	3 (the lesioned area ratio is less than 10%)
Cc1ccc(S(=O)(=O)N(C)c2ccc(F)c([N+](=O)[O-])c2)cc1 [compound 273]	3 (the lesioned area ratio is less than 10%)
Cc1ccc(S(=O)(=O)N(C)c2ccc(Br)c([N+](=O)[O-])c2)cc1 [compound 404]	3 (the lesioned area ratio is less than 10%)
CN(c1ccc(Cl)cc1[N+](=O)[O-])S(=O)(=O)c1ccc(Cl)s1 [Compound No. 370, 4′,5-Dichloro-N-methyl-2′-nitro-2-thiophenesulfonanilide]	3 (the lesioned area ratio is less than 10%)
COc1ccc(N(C)S(=O)(=O)c2cccc([N+](=O)[O-])c2)c([N+](=O)[O-])c1 [compound 195]	3 (the lesioned area ratio is less than 10%)
Cc1ccc(S(=O)(=O)N(c2ccc(F)cc2[N+](=O)[O-])C(C)C)cc1 [Compound No. 265, 4′-Fluoro-N-isopropyl-2′-nitro-p-toluenesulfonanilide]	3 (the lesioned area ratio is less than 10%)
CCN(c1ccc(Cl)cc1[N+](=O)[O-])S(=O)(=O)c1ccc(Cl)cc1 [Compound No. 338, 4,4′-Dichloro-N-ethyl-2′-nitrobenzenesulfonanilide]	3 (the lesioned area ratio is less than 10%)
Cc1ccc(S(=O)(=O)N(C)c2ccc([N+](=O)[O-])cc2C#N)cc1 [compound 419]	3 (the lesioned area ratio is less than 10%)

SMILES	protection score
C=CCN(c1ccc(OC)cc1[N+](=O)[O-])S(=O)(=O)c1ccc(C)cc1 [compound 210]	3 (the lesioned area ratio is less than 10%)
Cc1ccc(S(=O)(=O)N(c2ccc(Cl)cc2[N+](=O)[O-])S(C)(=O)=O)cc1 [compound 322]	3 (the lesioned area ratio is less than 10%)
CCN(c1ccc(SC)cc1C#N)S(=O)(=O)c1ccc(C)cc1 [Compound No. 100, 2′-Cyano-N-ethyl-4′-methylthio-p-toluenesulfonanilide]	3 (the lesioned area ratio is less than 10%)
Cc1ccc(S(=O)(=O)N(C)c2ccc(Cl)nn2)cc1 [compound 504]	3 (the lesioned area ratio is less than 10%)
Cc1ccc(S(=O)(=O)N(C)c2ccc([N+](=O)[O-])cc2C)cc1 [Compound No. 125, N,2′-Dimethyl-4′-nitro-p-toluenesulfonanilide]	3 (the lesioned area ratio is less than 10%)
CCN(c1ccc(C#N)cc1C#N)S(=O)(=O)c1ccc(C)cc1 [compound 113]	3 (the lesioned area ratio is less than 10%)
CN(c1ccc(Cl)cc1[N+](=O)[O-])S(=O)(=O)c1ccc(Br)cc1 [compound 348]	3 (the lesioned area ratio is less than 10%)
Cc1ccc(S(=O)(=O)N(C)c2ccc(Cl)cc2CO)cc1 [Compound No. 65, 4′-Chloro-2′-hydroxymethyl-N-methyl-p-toluenesulfonanilide]	3 (the lesioned area ratio is less than 10%)
CON(c1ccc([N+](=O)[O-])cc1C#N)S(=O)(=O)c1ccc(C(F)(F)F)cc1 [Compound No. 565, 2′-Cyano-N-methoxy-4′-nitro-4-(trifluoromethyl)-Benzenesulfonanilide]	3 (the lesioned area ratio is less than 10%)
CN(c1ccc([N+](=O)[O-])cc1[N+](=O)[O-])S(=O)(=O)c1ccc(Cl)s1 [compound 456]	3 (the lesioned area ratio is less than 10%)
Cc1ccc(S(=O)(=O)N(C)c2ccc(S(C)(=O)=O)cc2C#N)cc1 [Compound No. 105, 2′-Cyano-4′-methanesulfonyl-N-methyl-p-toluenesulfonanilide]	3 (the lesioned area ratio is less than 10%)
CCN(c1ccc([N+](=O)[O-])cc1[N+](=O)[O-])S(=O)(=O)c1ccc(C#N)cc1 [compound 455]	3 (the lesioned area ratio is less than 10%)
C=CCN(c1ccc(Cl)cc1[N+](=O)[O-])S(=O)(=O)c1ccc(C)cc1 [compound 299, N-Allyl-4′-chloro-2′-nitro-p-toluenesulfonanilide]	3 (the lesioned area ratio is less than 10%)
CN(c1ccc([N+](=O)[O-])cc1[N+](=O)[O-])S(=O)(=O)c1ccccc1 [Compound No. 425, 2′,4′-Dinitro-N-methylbenzenesulfonanilide]	3 (the lesioned area ratio is less than 10%)
COCN(c1ccc(Cl)cc1[N+](=O)[O-])S(=O)(=O)c1ccc(C)cc1 [compound 308]	3 (the lesioned area ratio is less than 10%)
Cc1ccc(S(=O)(=O)N(C)c2ccc(Cl)cc2C=NO)cc1 [compound 67]	3 (the lesioned area ratio is less than 10%)
Cc1ccc(S(=O)(=O)N(c2ccccc2)c2ccc(Cl)cc2[N+](=O)[O-])cc1 [compound 324]	3 (the lesioned area ratio is less than 10%)
CCSC(=N)c1cc(Cl)ccc1N(CC)S(=O)(=O)c1ccc(C)cc1.I [Compound No. 88, Ethyl 5-Chloro-2-(N-ethyl-N-p-toluenesulfonyl)aminobenzthioimidate Hydroiodic Acid Salt]	3 (the lesioned area ratio is less than 10%)
Cc1ccc(S(=O)(=O)N(C)c2ccc(C(F)(F)F)cc2[N+](=O)[O-])cc1 [compound 423]	3 (the lesioned area ratio is less than 10%)
COc1ccc(N(C(C)=O)S(=O)(=O)c2ccc(C)cc2)c([N+](=O)[O-])c1 [compound 213, N-Acetyl-4′-methoxy-2′-nitro-p-toluenesulfonanilide]	3 (the lesioned area ratio is less than 10%)
Cc1ccc(S(=O)(=O)N(c2ccc(C#N)cc2[N+](=O)[O-])C(C)C)cc1 [Compound No. 409, 4′-Cyano-N-isopropyl-2′-nitro-p-toluenesulfonanilide]	3 (the lesioned area ratio is less than 10%)
CCN(c1ccc([N+](=O)[O-])cc1[N+](=O)[O-])S(=O)(=O)c1ccccc1 [compound 426]	3 (the lesioned area ratio is less than 10%)
CCCCN(c1ccc(OC)cc1[N+](=O)[O-])S(=O)(=O)c1ccc(C)cc1 [compound 209]	3 (the lesioned area ratio is less than 10%)
Cc1ccc(S(=O)(=O)N(C)c2cc(C(F)(F)F)cc(C(F)(F)F)c2)cc1 [compound 118]	3 (the lesioned area ratio is less than 10%)
